PubChem BioAssay AID504389 (National Center for Advancing Translational Sciences (NCATS), 2011)
The shares of active, inactive and inconclusive entries below differ from those in the screen. Potencies beside an inconclusive call are fits to weak or partial responses and may not hold up. The source made the active and inactive calls. Calls come from the whole dose curve; as a rule, active = well fitted curve in the direction sought with a large enough effect; inconclusive = small, poorly fitted or top-dose-only effect, or effect the other way, or another doubt; inactive = no such curve, though single readings can be large or run the other way.

Protein sequences, listed by entry. Tags and fused reporters are not part of them.
UniProt P16473, whole entry, looked up: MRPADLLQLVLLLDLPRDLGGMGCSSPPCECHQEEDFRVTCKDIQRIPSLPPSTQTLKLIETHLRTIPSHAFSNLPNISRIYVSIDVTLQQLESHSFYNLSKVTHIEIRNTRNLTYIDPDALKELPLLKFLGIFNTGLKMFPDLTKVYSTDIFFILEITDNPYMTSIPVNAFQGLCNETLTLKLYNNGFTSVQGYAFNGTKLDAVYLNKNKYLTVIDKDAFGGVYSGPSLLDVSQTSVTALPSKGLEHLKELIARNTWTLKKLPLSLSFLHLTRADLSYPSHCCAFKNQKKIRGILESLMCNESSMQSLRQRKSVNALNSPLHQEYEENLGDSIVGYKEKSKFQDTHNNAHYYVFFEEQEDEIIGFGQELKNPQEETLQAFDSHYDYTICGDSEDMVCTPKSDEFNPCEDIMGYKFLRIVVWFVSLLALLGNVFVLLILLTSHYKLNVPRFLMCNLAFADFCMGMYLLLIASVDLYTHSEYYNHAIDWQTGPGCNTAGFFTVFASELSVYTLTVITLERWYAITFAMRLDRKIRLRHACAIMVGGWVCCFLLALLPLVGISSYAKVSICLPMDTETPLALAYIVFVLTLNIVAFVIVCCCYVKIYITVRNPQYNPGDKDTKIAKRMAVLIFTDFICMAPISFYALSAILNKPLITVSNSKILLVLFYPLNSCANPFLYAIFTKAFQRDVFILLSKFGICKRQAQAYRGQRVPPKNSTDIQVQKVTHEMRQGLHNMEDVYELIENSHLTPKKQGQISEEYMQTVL

Each compound was assayed against Thyrotropin receptor (Homo sapiens) (UniProt P16473) (assay: qHTS Assay for Antagonists of the Thyroid Stimulating Hormone Receptor: SAR for Probe). Conditions: HEK293-TSHR, TSH-stimulated cAMP HTRF, 2 h; series mostly up to 57.5 µM.
Description: TSH is an alpha/beta heterodimeric glycoprotein hormone secreted from the anterior pituitary gland which belongs to the glycoprotein hormone family. The actions of TSH are mediated by a seven-transmembrane receptor, which upon TSH binding couples preferentially to the G-alpha (s) protein (Gs), resulting in activation of adenylate cyclase and increase in cyclic adenosine 3', 5' monophosphate (cAMP). The TSH receptor (THSR) is mainly expressed in thyroid follicular cells and regulates their growth and function. This cell based assay was conducted on a TSHR transfected HEK 293 cell line, measuring cAMP stimulation using antibody-based Homogeneous Time Resolved Fluorescence (HTRF). Our goal is to identify small molecules that will inhibit (antagonize) the thyroid-stimulating hormone receptor (TSHR), a member of the 7 transmembrane-spanning receptor (7TMR) family of cell surface receptors. TSHR-mediated hyperthyroidism is important in thyroid pathology. The development of small molecule antagonists of TSHR may lead to therapeutic approaches for TSHR-mediated hyperthyroidism caused by constitutively activating mutations or stimulating auto-antibodies associated with Graves' disease. Graves' disease is the leading cause of hyperthyroidism and is caused by autoantibodies that stimulate TSHR (TsAbs) causing thyroid growth and unregulated overproduction of thyroid hormones and existing treatments have liabilities (agranulocytosis). In addition, TSHRs are known to be expressed in multiple extrathyroidal tissues including bone, brain, kidney, testis, fat and cells of the immune system but the role of the TSHR in these tissues is not clear. Therefore, TSHR antagonists/inverse agonists could be used as probes of extrathyroidal TSHR function. Finally, TSHR inverse agonists, which are a subclass of antagonists that inhibit agonist-independent (or basal or constitutive) TSHR signaling, could be used to inhibit TSH-independent signaling in patients with recurrent or metastatic thyroid cancer who are receiving thyroid hormone to suppress TSH. The present assay presents confirmation data for analogues of series of interest in the primary screening assay.
An anti cAMP antibody contains a fluorescent cryptate tag (excitation 337 nm; emission 620 nm) and the acceptor is cAMP-d2 (excitation 620 nm; emission 665 nm). When antibody and cAMP-d2 interact and are excited by a 337 nm light, a FRET occurs resulting in emission at 665 nm. The assay is competition between cAMP-d2 and cAMP (from the cell lysate). The homogeneous protocol allows for one step dispense after stimulation that is automation friendly. Step, Parameter, Value, Description 1, Cells, 3 uL, 2000 TSHR freshly harvested cells/well 1536 TC treated White solid bottom plate (Cells resuspended in 10 mM HEPES buffered HBSS and 70 uM RO 20-1724) 2, Compound, 23 nL, Libraries and controls 3, Compound, 1 uL, EC80 TSH (4 nM final) 4, Time, 2 hours, 37C 5, Reagent, 2 uL, cAMP antibody diluted 1:20 in lysis buffer 6, Time, 30 minutes, Room temperature 7, Detector, HTRF settings, Viewlux

Potency, active:
COc1ccc(C2Nc3ccccc3C(=O)N2Cc2cccnc2)cc1COc1c(C)cccc1C (configuration not stated) 36.6 µM

Potency, inconclusive:
COc1ccc(C2Nc3ccccc3C(=O)N2CCc2ccc(Cl)cc2Cl)cc1COc1ccc(NC(C)=O)cc1 (configuration not stated) 4.47 µM [activator, full curve, poor fit]
COc1ccc(C2Nc3ccccc3C(=O)N2Cc2ccccc2)cc1COc1ccc(F)cc1 (configuration not stated) 15.8 µM [inhibitor, partial curve, poor fit]
COc1ccc(-c2nc3ccccc3n2Cc2ccccc2)cc1COc1ccc(NC(C)=O)cc1 15.8 µM [activator, partial curve, poor fit]
COc1ccc(C2Nc3ccccc3C(=O)N2Cc2ccccc2OC)cc1COc1ccc(NC(C)=O)cc1 (configuration not stated) 10 µM [activator, partial curve, poor fit]
COc1ccc(CNCc2ccccc2)cc1COc1ccc(NC(C)=O)cc1 0.126 µM [activator, full curve, poor fit]
COc1ccc(CN(Cc2ccccc2)C(=O)c2ccccc2N)cc1COc1ccc(NC(C)=O)cc1 3.55 µM [activator, partial curve]
COc1ccc(CN(Cc2ccccc2)C(=O)c2ccncc2)cc1COc1ccc(NC(C)=O)cc1 5.62 µM [activator, full curve, poor fit]
COc1ccc(CN(Cc2ccccc2)C(=O)c2ccccc2O)cc1 5.62 µM [activator, full curve, poor fit]
COc1ccc(C2Nc3ccccc3C(=O)N2Cc2cccnc2)cc1COc1c(C)cc(NC(C)=O)cc1C (configuration not stated) 51.7 µM [inhibitor, partial curve]
COc1ccc(C2Nc3ccccc3C(=O)N2Cc2ccco2)cc1COc1cccc(NC(C)=O)c1 (configuration not stated) 28.2 µM [activator, partial curve, poor fit]
COc1ccc(-c2nc3ccc(NC(C)=O)cc3c(=O)n2Cc2ccccc2)cc1COc1ccc(NC(C)=O)cc1 3.55 µM [activator, full curve, poor fit]
COc1ccc(-c2nc3ccccc3c(=O)n2Cc2ccc(CNC(=O)CO)cc2)cc1COc1ccc(NC(C)=O)cc1 12.6 µM [activator, partial curve, poor fit]
COc1ccc(C2Nc3ccccc3C(=O)N2Cc2ccccc2)cc1COc1cccc(Cl)c1 (configuration not stated) 14.1 µM [inhibitor, partial curve]
COc1ccc(C2N(Cc3ccccc3)C(=O)c3ccccc3N2C)cc1COc1ccc(NC(C)=O)cc1 (configuration not stated) 5.01 µM [activator, full curve, poor fit]
CCC(=O)Nc1ccc(OCc2cc(C3Nc4ccccc4C(=O)N3Cc3ccccc3)ccc2OC)cc1 (configuration not stated) 3.16 µM [activator, full curve, poor fit]
COc1ccc(C2Nc3ccccc3C(=O)N2Cc2ccc(C(F)(F)F)cc2)cc1COc1ccc(NC(C)=O)cc1 (configuration not stated) 0.0004 µM [activator]
COc1ccc(-c2nc3ccccc3c(=O)n2Cc2ccccc2)cc1COc1ccc(NC(C)=O)cc1 10 µM [activator, partial curve]
COc1ccc(C2Nc3ccccc3C(=O)N2C2CCCC2)cc1COc1ccc(NC(C)=O)cc1 (configuration not stated) 4.47 µM [activator, full curve, poor fit]
COc1ccc(C(=O)N(Cc2ccccc2)Cc2ccccc2)cc1COc1ccc(NC(C)=O)cc1 7.08 µM [activator, full curve, poor fit]
COc1ccc(CN(Cc2ccccc2)C(=O)c2ccc(O)cc2)cc1COc1ccc(NC(C)=O)cc1 11.2 µM [activator, partial curve, poor fit]
O=C(c1ccccc1O)N(Cc1ccccc1)Cc1cccs1 7.94 µM [activator, partial curve, poor fit]

Random excerpt: 2 compounds from above
Potency, inconclusive:
CCC(=O)Nc1ccc(OCc2cc(C3Nc4ccccc4C(=O)N3Cc3ccccc3)ccc2OC)cc1 (configuration not stated) 3.16 µM [activator, full curve, poor fit]
COc1ccc(CN(Cc2ccccc2)C(=O)c2ccncc2)cc1COc1ccc(NC(C)=O)cc1 5.62 µM [activator, full curve, poor fit]

Next part:

Potency, inactive:
COc1ccc(C2Nc3ccccc3C(=O)N2Cc2ccco2)cc1 (configuration not stated)
COc1ccc(CN(Cc2ccccc2)C(=O)CN2CCN(C)CC2)cc1COc1ccc(NC(C)=O)cc1
COc1ccc(OCc2cc(C3Nc4ccccc4C(=O)N3Cc3ccccc3)ccc2OC)cc1 (configuration not stated)
COc1ccc(C2Nc3cccc(O)c3C(=O)N2Cc2ccco2)cc1COc1c(C)cc(NC(C)=O)cc1C (configuration not stated)
COc1ccc(CN2C(=O)N(c3ccccc3)C(=O)C2c2ccccc2)cc1COc1ccc(NC(C)=O)cc1 (configuration not stated)
